Assay results as given in article PMC12504543.
These are yes or no findings as the source states them, for the method shown. In cells and extracts the contact can be indirect. Some results given as binding are weak or reduced against the parent protein; the word gives no strength.

Sequences of proteins named here, by UniProt entry; tags and fusion partners are left off. Residues count along the entry.
UniProt Q9QUK6, residues 26-835: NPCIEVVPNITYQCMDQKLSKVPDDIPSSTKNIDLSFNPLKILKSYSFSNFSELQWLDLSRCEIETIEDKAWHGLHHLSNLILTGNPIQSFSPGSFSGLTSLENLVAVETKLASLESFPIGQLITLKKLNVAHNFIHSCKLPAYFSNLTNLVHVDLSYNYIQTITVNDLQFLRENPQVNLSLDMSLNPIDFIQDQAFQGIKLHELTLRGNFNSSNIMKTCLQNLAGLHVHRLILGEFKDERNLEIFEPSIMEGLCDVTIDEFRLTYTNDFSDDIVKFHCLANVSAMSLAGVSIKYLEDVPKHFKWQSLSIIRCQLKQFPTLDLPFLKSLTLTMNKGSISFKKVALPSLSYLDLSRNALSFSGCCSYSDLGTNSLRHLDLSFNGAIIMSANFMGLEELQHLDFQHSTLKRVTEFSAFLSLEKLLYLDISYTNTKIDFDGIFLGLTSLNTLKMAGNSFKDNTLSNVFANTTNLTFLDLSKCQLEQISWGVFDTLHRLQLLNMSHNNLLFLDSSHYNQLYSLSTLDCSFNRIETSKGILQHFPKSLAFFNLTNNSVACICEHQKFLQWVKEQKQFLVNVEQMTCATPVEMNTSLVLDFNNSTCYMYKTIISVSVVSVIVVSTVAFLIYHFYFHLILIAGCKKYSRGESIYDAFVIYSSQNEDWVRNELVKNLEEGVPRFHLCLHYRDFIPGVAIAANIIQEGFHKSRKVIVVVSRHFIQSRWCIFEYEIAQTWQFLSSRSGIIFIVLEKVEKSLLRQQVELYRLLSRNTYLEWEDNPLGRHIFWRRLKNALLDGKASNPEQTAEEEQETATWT
UniProt P63158: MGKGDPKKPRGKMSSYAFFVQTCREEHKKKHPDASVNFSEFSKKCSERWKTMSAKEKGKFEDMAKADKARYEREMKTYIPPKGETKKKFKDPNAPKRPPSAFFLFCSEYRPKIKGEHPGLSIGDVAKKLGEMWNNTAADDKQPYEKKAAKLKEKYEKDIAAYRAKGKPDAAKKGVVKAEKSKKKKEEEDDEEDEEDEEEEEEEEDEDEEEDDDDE

Molecular target: toll-like receptor 4 (TLR4) (UniProt Q9QUK6)
Assay: co-IP; Co-immunoprecipitation of HMGB1 and TLR4, without and with rhLCN2 at rising concentrations; cells, bait and conditions not shown (supplementary methods)

binding: binds
Substance: High-mobility group box 1 (HMGB1) (from UniProt P63158 1-215)
